Data published in publication doi:10.1101/2023.12.14.571783.
Results are given in words; binding and its absence hold for the method and conditions named. In cells and extracts the contact can be indirect. A yes stands for co-enrichment or nearness to the bait. Other partners may have been found.

Protein sequences, listed by entry. Tags and fused reporters are not part of them.
UniProt P48643: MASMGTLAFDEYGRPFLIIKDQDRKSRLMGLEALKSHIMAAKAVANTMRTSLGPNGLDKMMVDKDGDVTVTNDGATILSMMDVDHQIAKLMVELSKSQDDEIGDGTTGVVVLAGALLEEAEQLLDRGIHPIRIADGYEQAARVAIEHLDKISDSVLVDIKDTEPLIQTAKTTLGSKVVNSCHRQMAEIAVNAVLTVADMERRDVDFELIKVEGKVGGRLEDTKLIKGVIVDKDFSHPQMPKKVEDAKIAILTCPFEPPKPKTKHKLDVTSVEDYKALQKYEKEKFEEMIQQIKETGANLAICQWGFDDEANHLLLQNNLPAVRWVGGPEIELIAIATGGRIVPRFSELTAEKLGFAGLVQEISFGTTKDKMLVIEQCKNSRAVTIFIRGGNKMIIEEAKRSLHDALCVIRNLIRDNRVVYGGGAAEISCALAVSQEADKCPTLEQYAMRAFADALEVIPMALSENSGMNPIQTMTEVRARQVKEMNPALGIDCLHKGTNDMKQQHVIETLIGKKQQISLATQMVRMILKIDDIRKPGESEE
UniProt O43707: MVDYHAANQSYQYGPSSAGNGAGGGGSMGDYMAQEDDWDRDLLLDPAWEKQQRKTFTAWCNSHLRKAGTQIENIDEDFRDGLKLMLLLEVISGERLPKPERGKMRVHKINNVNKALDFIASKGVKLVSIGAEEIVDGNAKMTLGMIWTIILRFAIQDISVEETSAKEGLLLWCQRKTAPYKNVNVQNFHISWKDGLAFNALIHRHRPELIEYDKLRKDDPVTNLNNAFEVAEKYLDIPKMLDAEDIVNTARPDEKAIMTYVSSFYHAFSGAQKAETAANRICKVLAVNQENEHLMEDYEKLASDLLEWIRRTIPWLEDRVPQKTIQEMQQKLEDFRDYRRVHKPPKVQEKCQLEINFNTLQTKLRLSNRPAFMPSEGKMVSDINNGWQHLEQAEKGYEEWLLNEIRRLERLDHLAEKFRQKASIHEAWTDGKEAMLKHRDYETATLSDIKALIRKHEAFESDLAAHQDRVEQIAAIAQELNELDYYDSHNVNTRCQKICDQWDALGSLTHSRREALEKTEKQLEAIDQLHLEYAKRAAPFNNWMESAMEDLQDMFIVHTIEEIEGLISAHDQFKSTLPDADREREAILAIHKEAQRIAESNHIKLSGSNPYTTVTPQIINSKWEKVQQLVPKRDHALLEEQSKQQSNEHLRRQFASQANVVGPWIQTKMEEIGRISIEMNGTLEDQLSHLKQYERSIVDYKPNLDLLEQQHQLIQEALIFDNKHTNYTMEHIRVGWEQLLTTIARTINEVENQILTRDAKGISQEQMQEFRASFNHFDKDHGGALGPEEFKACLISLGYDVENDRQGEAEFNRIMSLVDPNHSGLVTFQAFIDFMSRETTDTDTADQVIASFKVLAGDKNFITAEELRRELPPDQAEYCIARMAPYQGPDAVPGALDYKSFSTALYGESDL

Target: T1, chaperonin containing TCP1 subunit 3 (CCT3) (human (endogenous in 97L and LM3)) (UniProt P49368)
T1 sequence: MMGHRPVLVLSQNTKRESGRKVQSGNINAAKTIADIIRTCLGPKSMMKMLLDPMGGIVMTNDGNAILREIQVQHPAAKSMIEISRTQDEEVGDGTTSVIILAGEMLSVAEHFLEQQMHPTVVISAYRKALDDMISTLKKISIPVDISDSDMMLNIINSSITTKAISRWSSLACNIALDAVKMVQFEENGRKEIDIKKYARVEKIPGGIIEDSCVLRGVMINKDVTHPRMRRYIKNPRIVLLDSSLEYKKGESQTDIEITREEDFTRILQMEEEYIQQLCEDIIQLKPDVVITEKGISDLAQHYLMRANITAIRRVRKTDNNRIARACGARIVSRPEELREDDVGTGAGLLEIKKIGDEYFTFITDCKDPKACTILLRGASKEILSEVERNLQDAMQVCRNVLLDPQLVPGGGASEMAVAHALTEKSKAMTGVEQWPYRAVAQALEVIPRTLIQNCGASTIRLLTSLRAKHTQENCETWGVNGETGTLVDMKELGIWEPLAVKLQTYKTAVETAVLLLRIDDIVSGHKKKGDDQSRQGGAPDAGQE
Assay: affinity purification with mass spectrometry

binding | Substance
binds | CCT5 (from UniProt P48643 1-541)
binds | alpha-actinin-4 (ACTN4) (from UniProt O43707 1-911)
